108 sequences from PubChem BioAssay AID1347426 (Functional Genomics Laboratory (NCATS/FGL), 2020) can be followed below.

The campaign covered roughly 31,000 sequences. About 1,400 (4.5%) were called active.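 Rule for the calls: active = median seed-adjusted z-score above 1 or below -1; inactive = the rest.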 Some of the results follow.

The experiment can be described thus: Novel Modifiers of Survival Motor Neuron (SMN) Protein: Gene Identification via Genome-wide siRNA Screen.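 Note: luminescence tracks full-length SMN protein made from the SMN2 reporter.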 The conditions noted are these: HEK293T SMN2-luciferase reporter, siRNA knockdown, 72 h; actives lie on both sides. From the text: Spinal muscular atrophy (SMA) is the most common neuromuscular autosomal recessive disorder and one of the leading genetic causes of infant death. SMA results from mutations inducing loss of function or deletion in the survival of motor neuron-1 gene (SMN1), leading to deficiency of the survival motor neuron (SMN) protein. Although a second nearly identical gene, SMN2, is retained in humans, its expression primarily produces an aberrantly spliced isoform that is largely unstable and quickly degraded. We performed a genome-wide RNAi screen using a cell-based reporter assay to identify genes and pathways that modulate SMN protein stability. The screen identified over 200 genes that led to the greatest increase or decrease in luciferase expression.
Using HEK293T cells stably expressing a luciferase reporter that combines the promoter and splicing based cassettes in tandem with the major portion of the native SMN2 cDNA with luciferase, we performed a genome-wide RNAi screen to identify modulators of SMN protein levels. Luciferase is expressed when full-length SMN protein is generated with luminescence signal proportional to SMN protein levels. Our luciferase-based reporter assay was used to screen Ambion Silencer Select Human Druggable Genome siRNA library (10418 genes, 3 unique siRNAs per gene) using lipid-based reverse transfection.
Briefly, 1 pmol of each siRNA was spotted to a well of a 384-well plate (Corning, Corning, NY) and 20 microL of serum-free DMEM containing […] of Lipofectamine RNAiMax (Life Technologies, Carlsbad, CA) was then added to each well. Transfected cells were maintained at 37 degrees C in 5% CO2 for 72 hours, 20 microL of ONE-Glo Reagent (Promega) was added to wells for luciferase quantification. Raw luminescence reads were normalized to Ambion(R) Silencer(R) Negative Control #2 siRNA, then log10 transformed. A robust statistical measure of median absolute deviation (MAD) to standardize siRNA activities from each screen. Common Seed Analysis was used to help prioritize clean hits as opposed to those appearing to arise from seed based off-target effects. Candidate modulators were defined as the genes having a MAD score greater than 1.0 or less than -1.0.
For orientation: In a reporter assay the amount or activity of a reporter protein is the signal.
Regarding GGAUUUCCAGGUGCUCGAATT against FARP2, the median seed-adjusted z-score was inactive: -0.0358.

On to ACUUCAAUGUUGCAUUGCATT against NECAP2, for which the median seed-adjusted z-score was inactive: -0.539. To GCCUAAUGAUGCUCUAGUATT against TTC6 belongs inactive: 0.234; to CGAUCCUCUUGGUUUACCATT against NAALAD2, inactive: -0.00068. The value for GGACAGUGAUGGAAGCAUUTT against ADAM7 was inactive: -0.0638; that for AGCAGGAUAUGAUCCGGAATT against SEC14L4 was inactive: -0.714.

GGGCAUACAUGCAUCAACATT against FBLN1: the median seed-adjusted z-score was inactive: 0.518. In the case of GGACUCACCAAAUAGAUCATT against ZNF818, the median seed-adjusted z-score is inactive: -0.223. The value for CCAGCUAAGAGACAAUGUATT against GABPB2 was inactive: 0.441; that for GAUCUUCGCUUUAACAGAATT against PXDN was inactive: 0.771; that for GCACAGUUGGGAUCGAUUUTT against RAB3C was inactive: 0.043. Take GAAGCUGCCUUGGACAUCATT against B4GALNT1: the median seed-adjusted z-score is inactive: 0.0265. To CGUGGAAGAUUUUCACAGATT against ZNF174 belongs inactive: 0.035. The value for AAACAAGAGUCCCUCUAAATT against HMGA2 was inactive: -0.327. GUGGAUAAGCUGAACAUUATT against CTNNA1: the median seed-adjusted z-score was inactive: -0.0588.

As to GCUAUAAGGUGGACCACGATT against ARHGAP27, the median seed-adjusted z-score was inactive: -0.777. To GUUUCGAGAUUGUUGCUAUTT against CCNL1 belongs active: -1.26; to GUCUGAUAAUGUUACUCGATT against GPR115, inactive: -0.189. To GCACAUUAAAGUUACAAAUTT against NDUFB2 belongs inactive: 0.063; to CAACUUCUAAGGGAAUUCATT against HPGD, inactive: -0.145; to GGUCCAAGCUGAUUACCCUTT against UNC13A, active: -2.1. The value for GAUCGAUUCAUACCAUAUATT against MCM8 was inactive: 0.279; that for GAAGGAAGCGAGACUCAUATT against LRPAP1 was inactive: -0.0616; that for UGACAUACAUGGAAUAGCATT against KLK6 was inactive: 0.176.

For GUCUUCGAUUCUUAGCUUATT against DCC, the median seed-adjusted z-score was inactive: 0.303. The value for CAUGCGUUCUCUGAAGUCATT against PTCH2 was inactive: -0.191; that for CAAGUUCUCUUAUCCACCATT against PPP1R15A was inactive: 0.539. The value for AGGCAUUCCGAGUCUUUGATT against CALM1 was inactive: 0.355; that for AGCUACUACUAUCCCAUGATT against LENG8 was inactive: -0.00539. Turning to GAACCACUGCAUCACCUGUTT against SCUBE1, the median seed-adjusted z-score was inactive: 0.673. The value for CGACAAGUUUUGUGAGACUTT against LRAT was inactive: 0.345; that for GCUGUUAAGUAUGCCCUUATT against AKR1A1 was inactive: -0.255; that for GUUCUAUGGUGAUGACAUATT against C2 was inactive: -0.0549.

As for GCCUCAAGCCUUCGCAGAATT against DOC2A, the median seed-adjusted z-score was inactive: 0.299. Take CUAUGAACAAGGUUGCAGATT against NDUFV2: the median seed-adjusted z-score is inactive: -0.794. Take AGGAGGCUUUCAACAUGAUTT against MYL9: the median seed-adjusted z-score was inactive: 0.571. For GGAGAUAUCUGUGCCUGUATT against AP1M2, the median seed-adjusted z-score was inactive: 0.0641. To GGAACAUUGACGGCGAAUATT against ANGPTL2 belongs inactive: 0.141; to GCUCCUGAGUGAAAACGGATT against ALAD, inactive: 0.0952; to GCAUCCUGGUUUUAGACGATT against ABCC3, inactive: -0.549. Regarding GGAUUAUGAGUACCGAGAATT against MAP3K14, the median seed-adjusted z-score was inactive: -0.0609. For CACCAGCACUUUAUACACUTT against RHOC, the median seed-adjusted z-score is inactive: -0.579. The value for GCUCCAACUUCAGCACGCATT against ZNF500 was inactive: 0; that for AGAAGGUUGUUUUCGAGCATT against TPI1 was inactive: 0.447. The value for CGAGUUAAAUUGACAUUAATT against PTPN12 was inactive: -0.507. To CCUGAAAUCAUAGAGUUAATT against KCNMA1 belongs inactive: 0.

Turning to GCAGAAUACAAGAGCUUGATT against EID2, the median seed-adjusted z-score is active: -1.04.

Take UGGAUCAUGUCAUUCAAUUTT against COX8A: the median seed-adjusted z-score is inactive: -0.0749.

For ACCGAGAAAUGCUAGAAAATT against PPM1L, the median seed-adjusted z-score was inactive: 0.4.

Consider GAAACUUGAUUGAUCUUUATT against MITF, for which the median seed-adjusted z-score is inactive: -0.249.

On to GGAUAUCCGCCUUCACAGATT against BAG4, for which the median seed-adjusted z-score is inactive: 0.111. To GAAUGUAAACUAUGCGGUATT against ZNF14 belongs inactive: -0.0802; to AGCUGGUCGCUAUCUAUAATT against SYN2, inactive: -0.375. To AUCCCAUGCUCUUCCUGUATT against GPR77 belongs inactive: 0; to GGCGACCAUUUAUAGGAUUTT against AASDH, inactive: 0.156. The value for GAACGAAACAGAAAGGUGATT against ABHD1 was inactive: 0.336; that for CAAUGAUGGAGGCUAUUAUTT against EMILIN1 was inactive: 0.

For the sequence AAGACAAGCUAAAAAUGAUTT against YWHAE, the median seed-adjusted z-score was active: 1.38. To GAACAACUGCGGAAUCAGATT against GNB4 belongs inactive: 0.015.

GCAUAUCUGGAGUCAGCGATT against AP1G2: the median seed-adjusted z-score is inactive: 0.0657. As to GAGCAUCGAUGGCGAGAAUTT against PDLIM7, the median seed-adjusted z-score was inactive: 0.548. Consider GAAUUAUGCGUAACCAUCUTT against MS4A3, for which the median seed-adjusted z-score is inactive: 0.189.

Regarding GACAACUAGUCAUAACAAATT against ZNF519, the median seed-adjusted z-score was inactive: 0.0162. Turning to GCAUGCGAAGAAUCCGAAATT against MYO16, the median seed-adjusted z-score is inactive: -0.072.

Take GAGCUGAUGUAGUCAGUAATT against PPP1CB: the median seed-adjusted z-score was inactive: -0.81.

As for GAAGAUGACUGGACUCAAATT against CTSK, the median seed-adjusted z-score is inactive: 0.0972. To CCGCUAAAGUGGAAGCUAUTT against JARID1A belongs inactive: 0.189; to GCCUUUCACAGGUUGAUAUTT against TFIP11, inactive: -0.0562; to CAGAGAAGCUAGACCUGAATT against JARID1C, inactive: 0.372. The value for ACGACACCAUGAUUGAGAATT against LHX6 was inactive: -0.717; that for GCAUCAGUGUGGUUAGCUATT against FLOT1 was inactive: -0.685.

In the case of GCAGUGAAAUAUCCAUGAUTT against BRD8, the median seed-adjusted z-score is inactive: -0.133.

As to GGAGGACAAGGUUUCCUUATT against FCRL1, the median seed-adjusted z-score is inactive: -0.873. The value for GCAAAGUCCUGACCUUCGATT against SMC1A was inactive: -0.362; that for UCACUUAGCGCUUUCAGGATT against ZNF322A was inactive: 0.0884; that for GCACCAGCCUUAACCCUCATT against RAB1B was active: 1.55.

For the sequence CCGAUAGAAUAAGUGCUAATT against RBM45, the median seed-adjusted z-score was inactive: -0.234. The value for CAACAGCGAUUUUAGGAUATT against ARNTL2 was inactive: 0.102; that for CCAUGAUGGUGACCCAGCATT against MYBPH was inactive: 0.0513. To GGAGUGGAAGCGUUUGGAATT against ZNF3 belongs inactive: -0.149. To CGUGGGUCACUGUUAAGAATT against CPXM2 belongs inactive: 0; to CGAUGGUACUGGAGAAGGATT against GLUL, inactive: -0.307.

Regarding CAUCCGAUAGAAUCCAGUUTT against KPNB1, the median seed-adjusted z-score is inactive: 0.165. To CAUGAUAACUGGGAUUUAATT against PON3 belongs inactive: -0.0823; to GUAUGGAGAUCUCUACGGATT against RYR3, inactive: 0. The value for GCAUUGUUUUGAUGAGUAUTT against CDC7 was inactive: -0.236; that for GCAUUACAGGCGUGCAGCATT against LBX2 was inactive: 0.538; that for AGAGGUGGGCCGAACCAUATT against CST2 was inactive: -0.411. GCAAUGAAGAGGACUAUGATT against ARIH2: the median seed-adjusted z-score is inactive: 0.0449. The value for GGAACUCUUUGCUGAAUUUTT against THOC4 was active: -1.54. To AGACCACCGUUAAUCCAGATT against NOVA1 belongs inactive: -0.486; to GGAGGCACCUCUCAAGAUATT against THRAP3, inactive: -0.852. To CAAUGAUCCAGAAGAUAGATT against MGAT4C belongs inactive: 0.187; to GGGUUCAUCUGAUUGACCATT against SLC6A14, inactive: 0. Consider GGGUCAACAGCAACUCGAATT against RAI1, for which the median seed-adjusted z-score was inactive: 0.113. The value for GGUCACUAGUGGAUUAUGATT against SNX6 was inactive: 0; that for CCCAUGCUGCGUUCACCUATT against RBPMS2 was inactive: -0.485. The value for CCACCGUCUUCAAUGCCCATT against RNF5 was inactive: -0.0342.

Regarding GGAUUAGGGAUGCAGUUAATT against AVEN, the median seed-adjusted z-score is inactive: 0.184.

With AGAUCUGCAUGAAACAACATT against VPS16, the median seed-adjusted z-score was inactive: 0.306. On to GGAGAGCCUUUAGCAGUAATT against ZNF132, for which the median seed-adjusted z-score is inactive: -0.484.

Consider GUAAUCUACUGGGACGGAATT against TP53, for which the median seed-adjusted z-score is inactive: 0.214. The value for CUAAGAGACUAAAUGCAAATT against SUCLG2 was inactive: -0.619.

Take CAAGAGCUUCCAAAACUUATT against ZNF75D: the median seed-adjusted z-score was inactive: 0. Consider GCCUGAAAAGGACAGCUCATT against FAM53B, for which the median seed-adjusted z-score is inactive: -0.00535. The value for GCUAGUUGAUCUCACGGUATT against TNIK was inactive: 0.154. The value for GGUUAUCACUGCGUUCCUATT against PHTF1 was inactive: 0.0129; that for CCAAUCUGGUGACGAUUUATT against SP110 was inactive: -0.788.
